Publication PMC3624020 (Nature communications, 2011)

System: sigma-2 receptors in hepatic membrane homogenates
Assay: blocking of WC-21 photoaffinity labeling of the ~24 kD protein band
Assay type: binding
Settings: rat liver membrane homogenates, photo cross-linked with WC-21, western blot

In the case of `O=C(CCCN1CCC(O)(c2ccc(Cl)cc2)CC1)c1ccc(F)cc1` [haloperidol], the “blocking of WC-21 labeling of the ~24 kD protein band” value is reported as “blocked”.
